Experimental data: PubChem BioAssay AID493246 (Drosophila RNAi Screening Center, 2011)

- Assay: 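Identify essential fly genes by loss of cell viability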 (primary screen)
- System: Drosophila Kc and S2R+ cells
- Knock-down reagent: long dsRNA against Drosophila genes
- Measurement: 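Cell number per well after knock-down, printed as raw plate values; calls were based on per-plate z-scores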
- Scale: Kc cell number and S2R+ cell number: higher = more cells remaining
- Call rule: 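Active when the per-plate z-score of cell number is 3 or more in the direction of fewer cells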
The deposit covers about 21,000 reagents; shown is an unselected part of those that have a named target and a result. Of all reagents, 429 (2%) were called active. 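Values are raw and not normalised between plates; calls rest on per-plate z-scores that were not deposited.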 A number with no mark means an inactive call. A plus sign joins genes that one reagent is predicted to hit. No sequences are given here. The record does not give: the amount of reagent, the time to read-out.

The opening 2 records, ahead of the listing:
Pdha (GeneID 31406) — Kc cell number, rep 1 = 1.47e6; Kc cell number, rep 2 = 1.46e6; S2R+ cell number, rep 1 = 1.01e6; S2R+ cell number, rep 2 = 1.14e6
CG7031 (GeneID 42704) — Kc cell number, rep 1 = 9.16e5 (active); Kc cell number, rep 2 = 1.01e6; S2R+ cell number, rep 1 = 4.49e5; S2R+ cell number, rep 2 = 5.32e5

Main list, from the first entry:
Pdha (GeneID 31406) — Kc cell number, rep 1 = 1.47e6; Kc cell number, rep 2 = 1.46e6; S2R+ cell number, rep 1 = 1.01e6; S2R+ cell number, rep 2 = 1.14e6
CG7031 (GeneID 42704) — Kc cell number, rep 1 = 9.16e5 (active); Kc cell number, rep 2 = 1.01e6; S2R+ cell number, rep 1 = 4.49e5; S2R+ cell number, rep 2 = 5.32e5
CG42633 (GeneID 8674052) — Kc cell number, rep 1 = 1.49e6; Kc cell number, rep 2 = 1.46e6; S2R+ cell number, rep 1 = 1.28e6; S2R+ cell number, rep 2 = 1.33e6
HPS1 (GeneID 36656) — Kc cell number, rep 1 = 1.74e6; Kc cell number, rep 2 = 1.70e6; S2R+ cell number, rep 1 = 1.40e6; S2R+ cell number, rep 2 = 1.47e6
CAH3 (GeneID 31804) — Kc cell number, rep 1 = 1.53e6; Kc cell number, rep 2 = 1.52e6; S2R+ cell number, rep 1 = 1.19e6; S2R+ cell number, rep 2 = 1.28e6
Vti1a (GeneID 38085) — Kc cell number, rep 1 = 1.23e6; Kc cell number, rep 2 = 1.37e6; S2R+ cell number, rep 1 = 9.23e5; S2R+ cell number, rep 2 = 1.03e6
CR42532 (GeneID 8674101) — Kc cell number, rep 1 = 1.86e6; Kc cell number, rep 2 = 1.91e6; S2R+ cell number, rep 1 = 1.45e6; S2R+ cell number, rep 2 = 1.64e6
Nha1 (GeneID 33961) — Kc cell number, rep 1 = 1.38e6; Kc cell number, rep 2 = 1.48e6; S2R+ cell number, rep 1 = 5.11e5; S2R+ cell number, rep 2 = 2.54e5
CG34454 (GeneID 5740130) — Kc cell number, rep 1 = 1.69e6; Kc cell number, rep 2 = 1.67e6; S2R+ cell number, rep 1 = 1.00e6; S2R+ cell number, rep 2 = 1.23e6
CG32813 (GeneID 31089) — Kc cell number, rep 1 = 1.49e6; Kc cell number, rep 2 = 1.56e6; S2R+ cell number, rep 1 = 9.87e5; S2R+ cell number, rep 2 = 1.17e6
beta'COP (GeneID 45757) — Kc cell number, rep 1 = 1.20e6; Kc cell number, rep 2 = 1.40e6; S2R+ cell number, rep 1 = 8.32e5; S2R+ cell number, rep 2 = 9.12e5
Etf-QO (GeneID 36031) — Kc cell number, rep 1 = 1.44e6; Kc cell number, rep 2 = 1.48e6; S2R+ cell number, rep 1 = 1.30e6; S2R+ cell number, rep 2 = 1.33e6
Or45a (GeneID 35958) — Kc cell number, rep 1 = 1.50e6; Kc cell number, rep 2 = 1.57e6; S2R+ cell number, rep 1 = 1.23e6; S2R+ cell number, rep 2 = 1.37e6
CG6567 + CG4565 — Kc cell number, rep 1 = 1.46e6; Kc cell number, rep 2 = 1.52e6; S2R+ cell number, rep 1 = 1.27e6; S2R+ cell number, rep 2 = 1.32e6
RYBP (GeneID 37601) — Kc cell number, rep 1 = 1.42e6; Kc cell number, rep 2 = 1.49e6; S2R+ cell number, rep 1 = 1.07e6; S2R+ cell number, rep 2 = 1.12e6
CG7848 (GeneID 36839) — Kc cell number, rep 1 = 1.65e6; Kc cell number, rep 2 = 1.73e6; S2R+ cell number, rep 1 = 1.16e6; S2R+ cell number, rep 2 = 1.28e6
Prp38 (GeneID 35934) — Kc cell number, rep 1 = 1.11e6; Kc cell number, rep 2 = 1.25e6; S2R+ cell number, rep 1 = 8.47e5; S2R+ cell number, rep 2 = 7.92e5
Or67b (GeneID 39120) — Kc cell number, rep 1 = 1.37e6; Kc cell number, rep 2 = 1.24e6; S2R+ cell number, rep 1 = 1.22e6; S2R+ cell number, rep 2 = 1.34e6
alpha-Man-Ib (GeneID 43436) — Kc cell number, rep 1 = 5.17e5; S2R+ cell number, rep 1 = 8.08e5
Sgsh (GeneID 42266) — Kc cell number, rep 1 = 1.42e6; Kc cell number, rep 2 = 1.39e6; S2R+ cell number, rep 1 = 8.54e5; S2R+ cell number, rep 2 = 1.07e6
so (GeneID 35662) — Kc cell number, rep 1 = 1.00e6 (active); Kc cell number, rep 2 = 1.06e6; S2R+ cell number, rep 1 = 5.40e5; S2R+ cell number, rep 2 = 7.16e5
